# Test results reported in PubChem BioAssay AID2417 (National Center for Advancing Translational Sciences (NCATS), 2010).
# About 4,300 (3.1%) of roughly 140,000 compounds were called active. The inconclusive results got no clear call from the source; some entries with a clear call stand among them for comparison.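 How the source made its calls: active means readout at or below -70, meaning at least 70% loss of cells showing the perinucleolar compartment, a nuclear body marking cancer cells; inconclusive means readout between -30 and a set limit; inactive means the rest.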
# Assay: High Content Assay for Compounds that inhibit the Assembly of the Perinucleolar Compartment;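 further: plate controls were DMSO wells for no effect and camptothecin positive control wells for full effect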
# Conditions: PC3M PTB-GFP, PNC prevalence imaging, 16 h; at 10 µM; hits give low values
# Method in brief: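 Read-out is percentage of cells bearing a perinucleolar compartment, from automated 20x imaging of fixed, Hoechst-stained PC3M PTB-GFP cells. Cells were seeded 4 h, then exposed 16 h to compound (23 nl of library stock) in duplicate plates.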
row,SMILES,"activity change (PNC), negative = inhibition"
1,Cc1onc(-c2c(F)cccc2Cl)c1C(=O)NC1CCSC1=O (stereo not given),inactive: -15%
2,O=C(OCc1ccc2c(c1)OCO2)c1ccc(S(=O)(=O)N2CCCC2)cc1,inactive: 43%
3,CCCCCC(=O)Nc1nc(C)c(-c2csc(Nc3ccccc3OCC)n2)s1,inconclusive: -60%
4,CCc1c(C)nc(Nc2nc(C)c3ccc(OC)cc3n2)[nH]c1=O,inactive: -26.9%
5,CCN1C(=O)c2cccc3c(S(=O)(=O)Nc4c(C)n(C)n(-c5ccccc5)c4=O)ccc1c23,inconclusive: -73.3%
6,Cc1c(NC(=O)Nc2ccc(Cl)cc2)c(=O)n(-c2ccccc2)n1C,inconclusive: -64.1%
7,COc1ccccc1NC(=O)N1CCn2c(nc3ccccc32)C1,inconclusive: -39.7%
8,CCC(=O)Nc1nc2ccccc2n1CCN(CC)CC,inconclusive: -32.9%
9,CCOC(=O)c1cnc(-n2nc(C)cc2C)nc1NCc1ccc2c(c1)OCO2,inconclusive: -45.4%
10,CCOC(=O)c1cnc2nc(NCc3ccc(OCc4ccccc4)cc3)[nH]n2c1=O,inconclusive: -70.3%
11,CN1CCc2c(n(CC(O)CN3C(=O)c4ccccc4S3(=O)=O)c3ccccc23)C1=O (stereo not given),inactive: -2.96%
12,CC(C)(C)c1ccc(S(=O)(=O)Nc2ccc(Cc3ccncc3)cc2)cc1,inconclusive: -61.6%
13,CCOC(=O)C1=C(CSc2nc3c(cc2C#N)CN(C)CC3)OC(N)=C(C#N)C1c1ccccc1 (stereo not given),inconclusive: -60.8%
14,Cc1csc(NC(=O)C(CC(C)C)NS(=O)(=O)c2ccc3c(c2)oc(=O)n3C)n1 (stereo not given),active: -81.7%
15,O=C(COC(=O)c1cc(-c2ccco2)nc2ccccc12)NCc1ccc2c(c1)OCO2,active: -100%
16,CCOc1cc2[nH]c(=S)n(CCOC)c(=O)c2cc1OCC,inconclusive: -52.4%
17,CCn1c(C)c(C(C)=O)c(N2CCN(c3ccccn3)CC2)nc1=S,inactive: 5.85%
18,CCOC(=O)c1c(C)[nH]c(N=Nc2cccc(C)c2)c1C,inactive: 2.03%
19,CCCc1cc(=O)n2[nH]c(NCc3ccc(Cl)cc3Cl)nc2n1,inconclusive: -46.6%
20,COC(=O)c1ccc(N2CCN(S(=O)(=O)c3ccc4ccccc4c3)CC2)c([N+](=O)[O-])c1,inconclusive: -45.2%
21,CCOC(=O)C(/C=C(\C#N)C(=O)OCC)=C(/N)N1CCN(c2ccc(OC)cc2)CC1,inconclusive: -66.7%
22,CC(C)NC(=O)CC(=O)N/N=C/c1ccc(Br)cc1,inactive: 15.4%
23,CS(=O)(=O)c1cc([N+](=O)[O-])c(Sc2nc3ccccc3[nH]2)c([N+](=O)[O-])c1,inconclusive: -69%
24,COc1ccc(-c2cc3ccccc3n2CC(O)CN2CCN(CCO)CC2)cc1 (stereo not given),inconclusive: -43.9%
25,CCOC(=O)C1CCCN(CCC(=O)Nc2ccc(C)cc2)C1 (stereo not given),inactive: 15.5%
26,O=C(Nc1ccc2c(c1)OCO2)C1CCCN1C(=O)Nc1ccccc1F (stereo not given),active: -84.4%
27,Cc1ccc(NC(=O)Cn2cccc2)c(Br)c1,inconclusive: -54.4%
28,Cc1cc(C(=O)Nc2ccccc2C#N)n(-c2ccccc2)n1,inconclusive: -39.7%

# A portion from the list above, for reference:
row,SMILES,"activity change (PNC), negative = inhibition"
1,Cc1onc(-c2c(F)cccc2Cl)c1C(=O)NC1CCSC1=O (stereo not given),inactive: -15%
2,O=C(OCc1ccc2c(c1)OCO2)c1ccc(S(=O)(=O)N2CCCC2)cc1,inactive: 43%

# The list goes on.

row,SMILES,"activity change (PNC), negative = inhibition"
1,COc1ccc(-n2nc3c(c2NC(=O)c2ccc(Br)cc2)CS(=O)C3)cc1 (stereo not given),inconclusive: -51.8%
2,O=C(/C=C/c1ccccc1)Nc1ncn[nH]1,inactive: 46.2%
3,COc1cc(/C=N/Nc2ccc3ccccc3c2)ccc1OC(=O)c1ccco1,inconclusive: -33.7%
4,O=C(CCCN1C(=O)C2CCCCN2C1=O)N1CCN(c2ccc([N+](=O)[O-])cc2)CC1 (stereo not given),inconclusive: -49.2%
5,Cc1cc(=O)n2[nH]c(-c3ccccc3Cl)cc2n1,inconclusive: -31.4%
6,CCCCNC(=O)NS(=O)(=O)c1ccc(NS(=O)(=O)c2ccccc2)cc1,inconclusive: -58.8%
7,C/C(=N\N1CCN(Cc2ccc(C)cc2)CC1)c1ccco1,inconclusive: -69.4%
8,O=C1C2C3C=CC([C@@H]2C(=O)N1C1CCCCC1)[C@H]1C(=O)N(C2CCCCC2)C(=O)C31 (stereo not given in full),inactive: -18.9%
9,CN(C)S(=O)(=O)N1CCN(Cc2ccccc2)CC1,inconclusive: -62.6%
10,CCN(CC)C(=O)CSc1nnc(-c2cc(-c3ccc(Cl)cc3)nc3ccccc23)o1,inconclusive: -35.6%
11,CSc1nc2ccc(S(=O)(=O)Nc3c(C)n(C)n(-c4ccccc4)c3=O)cc2s1,inconclusive: -55.1%
12,CC(C)NS(=O)(=O)c1ccc(OCC(=O)NCc2ccccc2)cc1,inconclusive: -41.5%
13,Cc1ccc(S(=O)(=O)NCCCCCC(=O)NC(C)(C)CO)cc1,inconclusive: -31%
14,O=C(Nc1nc(-c2ccc(S(=O)(=O)N3CCCC3)cc2)cs1)C1COc2ccccc2O1 (stereo not given),inconclusive: -41.7%
15,Cc1cc(C)nc(SCC(=O)c2ccc(O)cc2O)n1,active: -92.1%
16,COc1ccc(NC(=O)C2CCN(C(=O)c3ccc(OC)cc3)CC2)cc1,inactive: 28.2%
17,CC(=NCc1cccc(Cl)c1)c1nc(-c2ccco2)oc1O,inactive: 31.9%
18,Cc1ccc(-n2c(SCC(=O)Nc3cc(S(=O)(=O)N4CCOCC4)ccc3Cl)nc3ccccc3c2=O)cc1,inactive: 10.7%
19,Cc1nn(-c2nc3ccccc3[nH]2)c(N)c1-c1ccc(Cl)cc1,inconclusive: -42.8%
20,O=C1OCC2=C1C(c1ccc3c(c1)OCO3)Sc1ccccc1N2 (stereo not given),inconclusive: -37.6%
21,CCC1CCc2c(sc(NC(C)=O)c2C#N)C1 (stereo not given),inconclusive: -69.5%
22,O=C(NC(=S)Nc1ccc(NC(=O)c2cccs2)cc1)c1ccc([N+](=O)[O-])cc1,inconclusive: -51.5%
23,COc1ccc(-n2c(SCC(=O)Nc3nccs3)nnc2-c2ccoc2C)cc1,inactive: -6.77%
24,O=C(CSc1nnc(CNc2ccc(Cl)cc2)n1Cc1ccccc1)NCc1ccco1,inactive: -19.6%
25,Cc1ccc(O)c(C(=O)c2cnc3c(c2)CN(C)C(=O)N3)c1,inconclusive: -43.5%
26,O=C(CCN1C(=O)c2ccccc2C1=O)NC(=S)Nc1ccccc1,inconclusive: -44.1%
27,CC(NC(=O)Nc1ccccc1)C(c1cccs1)N1CCOCC1 (stereo not given),active: -122%
